# ± gives the standard deviation of the averaged measurements. Only a part is listed here, and it is no random draw. Most values lie at the level of the controls, where differences are scatter.
# Amino acid sequences for entries named in this document (tags omitted). A change or cut given only in a name is not applied to a line headed by its entry.
# UniProt Q9Y3E2: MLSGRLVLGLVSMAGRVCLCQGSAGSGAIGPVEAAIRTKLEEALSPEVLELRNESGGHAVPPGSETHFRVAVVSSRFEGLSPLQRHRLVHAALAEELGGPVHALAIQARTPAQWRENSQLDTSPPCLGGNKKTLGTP
# UniProt Q9Y6I9: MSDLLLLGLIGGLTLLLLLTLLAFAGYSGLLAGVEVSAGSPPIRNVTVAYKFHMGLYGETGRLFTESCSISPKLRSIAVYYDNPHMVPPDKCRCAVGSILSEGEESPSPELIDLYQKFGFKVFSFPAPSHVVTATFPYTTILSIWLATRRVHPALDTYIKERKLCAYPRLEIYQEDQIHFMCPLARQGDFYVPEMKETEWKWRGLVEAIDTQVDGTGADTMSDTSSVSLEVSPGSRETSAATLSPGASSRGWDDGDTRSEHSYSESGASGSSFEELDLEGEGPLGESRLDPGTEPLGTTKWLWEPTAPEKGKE
# UniProt Q9Y4E5: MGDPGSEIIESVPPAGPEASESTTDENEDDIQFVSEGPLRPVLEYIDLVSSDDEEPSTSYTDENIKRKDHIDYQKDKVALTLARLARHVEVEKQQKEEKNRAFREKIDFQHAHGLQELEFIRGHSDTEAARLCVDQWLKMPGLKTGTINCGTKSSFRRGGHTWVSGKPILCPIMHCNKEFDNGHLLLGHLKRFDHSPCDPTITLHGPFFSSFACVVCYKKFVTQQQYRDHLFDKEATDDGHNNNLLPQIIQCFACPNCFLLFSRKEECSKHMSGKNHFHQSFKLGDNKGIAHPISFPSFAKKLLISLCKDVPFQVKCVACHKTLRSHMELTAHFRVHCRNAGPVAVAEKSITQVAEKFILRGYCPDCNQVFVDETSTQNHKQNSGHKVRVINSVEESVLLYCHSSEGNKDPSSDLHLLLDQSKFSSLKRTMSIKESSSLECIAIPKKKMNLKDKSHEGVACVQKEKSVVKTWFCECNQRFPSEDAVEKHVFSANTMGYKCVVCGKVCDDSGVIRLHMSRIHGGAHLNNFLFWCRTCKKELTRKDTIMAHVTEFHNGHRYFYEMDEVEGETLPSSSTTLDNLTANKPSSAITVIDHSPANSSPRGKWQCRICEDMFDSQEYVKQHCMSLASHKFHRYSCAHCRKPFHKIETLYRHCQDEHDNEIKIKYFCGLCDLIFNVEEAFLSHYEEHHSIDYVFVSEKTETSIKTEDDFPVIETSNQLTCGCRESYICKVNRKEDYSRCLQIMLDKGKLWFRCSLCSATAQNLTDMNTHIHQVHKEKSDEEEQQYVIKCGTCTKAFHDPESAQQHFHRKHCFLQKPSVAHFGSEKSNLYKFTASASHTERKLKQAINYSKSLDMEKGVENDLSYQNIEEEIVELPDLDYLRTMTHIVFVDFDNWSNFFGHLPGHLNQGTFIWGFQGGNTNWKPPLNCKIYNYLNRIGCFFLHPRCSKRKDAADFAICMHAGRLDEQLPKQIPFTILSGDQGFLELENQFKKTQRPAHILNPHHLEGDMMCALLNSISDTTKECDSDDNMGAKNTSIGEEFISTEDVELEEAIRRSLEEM
# UniProt Q9Y4E8: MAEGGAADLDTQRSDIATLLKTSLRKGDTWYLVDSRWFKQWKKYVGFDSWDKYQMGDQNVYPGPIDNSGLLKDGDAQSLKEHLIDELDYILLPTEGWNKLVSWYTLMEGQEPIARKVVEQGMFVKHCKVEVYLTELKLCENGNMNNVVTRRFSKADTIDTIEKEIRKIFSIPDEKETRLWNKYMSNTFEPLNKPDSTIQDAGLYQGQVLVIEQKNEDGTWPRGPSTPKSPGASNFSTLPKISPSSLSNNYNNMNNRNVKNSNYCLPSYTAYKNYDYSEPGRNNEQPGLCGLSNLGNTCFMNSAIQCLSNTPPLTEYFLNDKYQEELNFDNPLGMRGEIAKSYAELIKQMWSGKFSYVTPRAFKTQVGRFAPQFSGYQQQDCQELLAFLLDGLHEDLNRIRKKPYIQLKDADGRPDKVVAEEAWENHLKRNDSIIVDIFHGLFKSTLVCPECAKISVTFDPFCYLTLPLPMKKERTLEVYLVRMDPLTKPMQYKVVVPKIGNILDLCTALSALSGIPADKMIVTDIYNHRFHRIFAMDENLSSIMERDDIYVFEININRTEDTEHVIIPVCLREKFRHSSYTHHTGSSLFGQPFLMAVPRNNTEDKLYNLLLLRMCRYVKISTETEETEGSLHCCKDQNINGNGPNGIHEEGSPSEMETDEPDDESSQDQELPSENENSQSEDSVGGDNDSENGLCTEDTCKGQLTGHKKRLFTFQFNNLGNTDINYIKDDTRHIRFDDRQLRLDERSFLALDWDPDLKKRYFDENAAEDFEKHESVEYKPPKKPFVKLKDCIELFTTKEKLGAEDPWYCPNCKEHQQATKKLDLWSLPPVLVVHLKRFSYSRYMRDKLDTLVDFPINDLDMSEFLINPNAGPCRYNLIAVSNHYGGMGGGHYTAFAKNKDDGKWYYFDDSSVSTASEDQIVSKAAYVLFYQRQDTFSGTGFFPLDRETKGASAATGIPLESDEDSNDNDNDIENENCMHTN
# UniProt Q9Y5V0: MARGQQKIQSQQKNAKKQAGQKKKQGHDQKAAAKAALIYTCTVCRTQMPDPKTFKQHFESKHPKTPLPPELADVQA
# UniProt Q9Y6I3: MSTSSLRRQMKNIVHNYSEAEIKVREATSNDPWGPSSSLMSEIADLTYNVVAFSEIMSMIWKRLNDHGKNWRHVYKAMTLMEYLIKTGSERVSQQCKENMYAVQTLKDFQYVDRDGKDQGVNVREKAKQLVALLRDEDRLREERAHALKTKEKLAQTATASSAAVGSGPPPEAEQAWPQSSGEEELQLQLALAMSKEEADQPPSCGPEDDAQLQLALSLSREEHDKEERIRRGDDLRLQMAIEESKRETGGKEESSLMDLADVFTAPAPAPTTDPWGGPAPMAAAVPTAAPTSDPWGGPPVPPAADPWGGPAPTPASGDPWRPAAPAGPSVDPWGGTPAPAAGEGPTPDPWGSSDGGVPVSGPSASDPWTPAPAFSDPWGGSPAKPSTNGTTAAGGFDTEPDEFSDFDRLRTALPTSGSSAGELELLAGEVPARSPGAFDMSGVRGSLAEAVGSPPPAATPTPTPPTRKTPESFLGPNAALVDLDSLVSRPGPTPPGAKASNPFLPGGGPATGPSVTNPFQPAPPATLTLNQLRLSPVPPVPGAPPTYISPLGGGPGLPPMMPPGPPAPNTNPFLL
# UniProt Q9Y303: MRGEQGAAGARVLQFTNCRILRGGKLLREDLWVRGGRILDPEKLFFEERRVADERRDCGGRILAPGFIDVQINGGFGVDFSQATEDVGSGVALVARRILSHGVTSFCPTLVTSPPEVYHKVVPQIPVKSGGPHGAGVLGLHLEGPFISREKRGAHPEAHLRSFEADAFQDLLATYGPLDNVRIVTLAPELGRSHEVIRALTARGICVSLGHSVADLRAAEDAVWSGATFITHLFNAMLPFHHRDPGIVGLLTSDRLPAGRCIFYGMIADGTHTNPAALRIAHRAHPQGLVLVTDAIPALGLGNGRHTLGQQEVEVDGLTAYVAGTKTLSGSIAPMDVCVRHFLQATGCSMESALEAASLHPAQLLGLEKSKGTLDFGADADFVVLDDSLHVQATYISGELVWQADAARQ
# UniProt Q9Y2R4: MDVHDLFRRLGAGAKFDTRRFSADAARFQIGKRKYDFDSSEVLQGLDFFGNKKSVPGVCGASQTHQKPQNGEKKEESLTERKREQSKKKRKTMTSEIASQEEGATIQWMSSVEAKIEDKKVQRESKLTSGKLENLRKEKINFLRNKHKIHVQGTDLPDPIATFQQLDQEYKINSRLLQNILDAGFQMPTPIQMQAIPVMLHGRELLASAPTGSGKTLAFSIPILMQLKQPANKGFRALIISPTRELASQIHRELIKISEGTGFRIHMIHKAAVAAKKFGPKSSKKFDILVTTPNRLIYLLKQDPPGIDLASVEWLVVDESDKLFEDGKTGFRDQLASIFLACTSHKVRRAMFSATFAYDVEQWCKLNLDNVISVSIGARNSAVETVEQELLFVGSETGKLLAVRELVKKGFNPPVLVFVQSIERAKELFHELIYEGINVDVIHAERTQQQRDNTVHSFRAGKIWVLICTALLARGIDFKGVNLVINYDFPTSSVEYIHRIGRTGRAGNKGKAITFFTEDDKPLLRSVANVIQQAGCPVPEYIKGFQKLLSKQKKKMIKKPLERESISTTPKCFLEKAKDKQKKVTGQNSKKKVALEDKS
# UniProt Q9Y5S1: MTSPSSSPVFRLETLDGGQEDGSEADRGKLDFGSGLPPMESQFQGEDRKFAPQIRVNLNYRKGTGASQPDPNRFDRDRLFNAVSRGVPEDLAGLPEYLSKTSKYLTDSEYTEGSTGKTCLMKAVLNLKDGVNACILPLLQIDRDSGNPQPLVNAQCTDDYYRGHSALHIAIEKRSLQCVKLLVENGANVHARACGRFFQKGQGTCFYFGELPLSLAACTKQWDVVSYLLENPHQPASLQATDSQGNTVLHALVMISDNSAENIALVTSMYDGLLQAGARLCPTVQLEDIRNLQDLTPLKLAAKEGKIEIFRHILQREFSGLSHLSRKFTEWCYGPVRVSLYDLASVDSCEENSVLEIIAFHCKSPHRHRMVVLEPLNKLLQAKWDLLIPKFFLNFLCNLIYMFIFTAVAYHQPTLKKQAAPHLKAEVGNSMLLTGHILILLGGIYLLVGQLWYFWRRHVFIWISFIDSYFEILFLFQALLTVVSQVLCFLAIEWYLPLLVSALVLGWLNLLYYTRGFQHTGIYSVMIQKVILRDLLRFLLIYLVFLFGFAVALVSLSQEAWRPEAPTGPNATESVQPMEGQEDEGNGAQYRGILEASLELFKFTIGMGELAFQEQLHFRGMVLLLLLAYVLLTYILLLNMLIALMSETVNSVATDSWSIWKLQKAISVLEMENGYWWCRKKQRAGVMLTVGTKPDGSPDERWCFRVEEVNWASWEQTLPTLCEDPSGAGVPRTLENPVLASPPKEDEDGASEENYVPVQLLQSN
# UniProt Q9Y6X8: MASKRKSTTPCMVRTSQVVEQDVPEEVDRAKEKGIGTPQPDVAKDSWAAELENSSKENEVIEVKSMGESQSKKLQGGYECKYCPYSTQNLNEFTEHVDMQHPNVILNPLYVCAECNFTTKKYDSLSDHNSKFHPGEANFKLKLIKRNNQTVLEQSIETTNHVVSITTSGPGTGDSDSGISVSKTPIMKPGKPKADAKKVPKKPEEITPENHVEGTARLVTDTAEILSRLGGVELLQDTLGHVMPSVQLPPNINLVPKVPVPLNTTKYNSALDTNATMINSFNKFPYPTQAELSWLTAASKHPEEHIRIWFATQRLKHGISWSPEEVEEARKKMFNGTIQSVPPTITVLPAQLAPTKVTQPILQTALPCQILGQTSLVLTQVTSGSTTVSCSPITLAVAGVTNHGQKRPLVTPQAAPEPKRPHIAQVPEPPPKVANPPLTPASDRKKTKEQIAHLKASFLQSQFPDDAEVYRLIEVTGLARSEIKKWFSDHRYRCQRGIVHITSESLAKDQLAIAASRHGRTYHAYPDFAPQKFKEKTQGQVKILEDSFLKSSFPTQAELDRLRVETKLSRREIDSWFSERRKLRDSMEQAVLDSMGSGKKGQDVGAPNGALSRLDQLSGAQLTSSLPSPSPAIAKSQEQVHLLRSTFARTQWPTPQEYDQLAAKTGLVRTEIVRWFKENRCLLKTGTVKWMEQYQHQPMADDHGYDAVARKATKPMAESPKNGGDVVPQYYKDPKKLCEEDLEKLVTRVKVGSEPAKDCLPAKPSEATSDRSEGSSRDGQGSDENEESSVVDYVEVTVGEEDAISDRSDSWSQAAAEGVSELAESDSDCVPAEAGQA
# UniProt Q9Y696: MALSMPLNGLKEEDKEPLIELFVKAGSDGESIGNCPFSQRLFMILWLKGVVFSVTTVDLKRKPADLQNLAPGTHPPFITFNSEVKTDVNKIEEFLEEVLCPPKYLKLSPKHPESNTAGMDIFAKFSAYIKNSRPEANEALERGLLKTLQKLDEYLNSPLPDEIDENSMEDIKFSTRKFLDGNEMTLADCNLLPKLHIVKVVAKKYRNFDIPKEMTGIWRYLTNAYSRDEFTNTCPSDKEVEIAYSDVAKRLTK
# UniProt Q9Y2X3: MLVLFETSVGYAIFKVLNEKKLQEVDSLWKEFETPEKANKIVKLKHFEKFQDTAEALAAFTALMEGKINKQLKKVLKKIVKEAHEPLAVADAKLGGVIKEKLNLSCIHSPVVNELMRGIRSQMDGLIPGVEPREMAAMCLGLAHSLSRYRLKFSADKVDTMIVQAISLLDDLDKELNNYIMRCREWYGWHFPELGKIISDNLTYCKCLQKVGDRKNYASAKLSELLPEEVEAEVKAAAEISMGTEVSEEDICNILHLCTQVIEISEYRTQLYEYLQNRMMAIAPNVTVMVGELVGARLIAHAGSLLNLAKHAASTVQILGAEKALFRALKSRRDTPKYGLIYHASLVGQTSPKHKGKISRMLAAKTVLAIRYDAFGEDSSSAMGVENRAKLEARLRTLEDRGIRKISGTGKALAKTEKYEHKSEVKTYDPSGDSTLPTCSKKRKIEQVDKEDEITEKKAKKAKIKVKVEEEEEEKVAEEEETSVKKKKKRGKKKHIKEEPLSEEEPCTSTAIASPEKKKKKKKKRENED
# Compound: Nc1ncnc2c1ncn2[C@@H]1O[C@H](COP(=O)(O)OP(=O)(O)OP(=O)(O)O)[C@@H](O)[C@H]1O [adenosine triphosphate]
# Experiment: NP40-soluble protein abundance relative to vehicle (solubility fold change) (ratio); higher = more soluble protein in presence of ATP
# Outline: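 In three independent experiments, Jurkat crude lysate made by Dounce homogenisation was treated for 10 min at room temperature and then 3 min at 37 °C with eight concentrations ranging from 0.1 to 10 mM. It was then solubilised with 0.8% NP40 plus benzonase for 60 min at 4 °C and ultracentrifuged. The supernatant was TMT-labelled for LC-MS/MS, and each value is the fold change against the detergent-processed vehicle for the same replicate, using vsn-normalised intensities.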
Target,NP40-soluble protein abundance (concentration: 0.1mM),NP40-soluble protein abundance (concentration: 0.5mM),NP40-soluble protein abundance (concentration: 1mM),NP40-soluble protein abundance (concentration: 2mM),NP40-soluble protein abundance (concentration: 4mM),NP40-soluble protein abundance (concentration: 6mM),NP40-soluble protein abundance (concentration: 8mM),NP40-soluble protein abundance (concentration: 10mM)
BOLA1 (UniProt Q9Y3E2),0.922 ± 0.17,0.862 ± 0.059,,,,,,
UniProt Q9Y2H0 and related entries,0.907 ± 0.043,0.887 ± 0.059,0.921 ± 0.038,0.899 ± 0.068,0.922 ± 0.045,0.944 ± 0.025,0.861 ± 0.093,0.85 ± 0.052
UniProt Q9Y2X9 and related entries,1 ± 0.12,0.978 ± 0.041,,,,,,
LSM4 (UniProt Q9Y4Z0),0.977 ± 0.023,0.947 ± 0.058,,,,,,
TEX264 (UniProt Q9Y6I9),0.965 ± 0.03,0.955 ± 0.022,0.918 ± 0.028,0.919 ± 0.024,0.91 ± 0.041,0.916 ± 0.061,0.867 ± 0.058,0.886 ± 0.029
TMED3 (UniProt Q9Y3Q3),1.1 ± 0.1,1.08 ± 0.041,1.08 ± 0.12,1.07 ± 0.12,1.06 ± 0.086,1.04 ± 0.13,1.06 ± 0.057,1.04 ± 0.088
POFUT2 (UniProt Q9Y2G5),1.03 ± 0.062,1.01 ± 0.025,1 ± 0.037,1.04 ± 0.019,1.01 ± 0.012,1.02 ± 0.04,0.955 ± 0.029,0.975 ± 0.017
UniProt Q9Y4E5 and related entries,1.05 ± 0.054,1.03 ± 0.037,,,,,,
MRPS2 (UniProt Q9Y399),1.06 ± 0.18,0.993 ± 0.056,1.11 ± 0.13,0.951 ± 0.12,0.932 ± 0.071,0.917 ± 0.17,0.944 ± 0.12,0.884 ± 0.088
ARFGEF1 (UniProt Q9Y6D6),1.008 ± 0.004,1.03 ± 0.023,,,,,,
UniProt Q9Y5T5-2,1.04 ± 0.0063,1.06 ± 0.051,1.08 ± 0.067,1.11 ± 0.032,1.19 ± 0.014,1.33 ± 0.045,1.351 ± 0.012,1.41 ± 0.028
UniProt Q9Y4E8 and related entries,1.02 ± 0.046,1.01 ± 0.061,,,,,,
UniProt Q9Y5V0,0.983 ± 0.071,1.04 ± 0.15,,,,,,
ALG5 (UniProt Q9Y673),1.06 ± 0.11,1.1 ± 0.092,1.03 ± 0.089,1.02 ± 0.074,1.03 ± 0.088,0.97 ± 0.13,1.03 ± 0.1,1.02 ± 0.058
UniProt Q9Y6I3 and related entries,0.964 ± 0.026,0.938 ± 0.04,0.932 ± 0.045,0.915 ± 0.018,0.915 ± 0.023,0.927 ± 0.037,0.907 ± 0.029,0.894 ± 0.014
UniProt Q9Y2G2-4|Q9Y2G2-5,0.968 ± 0.066,0.954 ± 0.049,,,,,,
UniProt Q9Y303 and related entries,1.04 ± 0.034,1 ± 0.056,0.995 ± 0.056,1.03 ± 0.069,1.03 ± 0.083,0.973 ± 0.12,1.02 ± 0.086,0.995 ± 0.063
DDX52 (UniProt Q9Y2R4),1.02 ± 0.082,1.07 ± 0.083,1.11 ± 0.11,1.16 ± 0.17,1.31 ± 0.27,1.41 ± 0.23,1.51 ± 0.37,1.71 ± 0.49

# Complete entries as entered above:
# UniProt Q9Y4E5 and related entries in the list: NP40-soluble protein abundance (concentration: 0.1mM): 1.05 ± 0.054; NP40-soluble protein abundance (concentration: 0.5mM): 1.03 ± 0.037
# ALG5 (UniProt Q9Y673) in the list: NP40-soluble protein abundance (concentration: 0.1mM): 1.06 ± 0.11; NP40-soluble protein abundance (concentration: 0.5mM): 1.1 ± 0.092; NP40-soluble protein abundance (concentration: 1mM): 1.03 ± 0.089; NP40-soluble protein abundance (concentration: 2mM): 1.02 ± 0.074; NP40-soluble protein abundance (concentration: 4mM): 1.03 ± 0.088; NP40-soluble protein abundance (concentration: 6mM): 0.97 ± 0.13; NP40-soluble protein abundance (concentration: 8mM): 1.03 ± 0.1; NP40-soluble protein abundance (concentration: 10mM): 1.02 ± 0.058

# The results go on:

Target,NP40-soluble protein abundance (concentration: 0.1mM),NP40-soluble protein abundance (concentration: 0.5mM),NP40-soluble protein abundance (concentration: 1mM),NP40-soluble protein abundance (concentration: 2mM),NP40-soluble protein abundance (concentration: 4mM),NP40-soluble protein abundance (concentration: 6mM),NP40-soluble protein abundance (concentration: 8mM),NP40-soluble protein abundance (concentration: 10mM)
CAB39 (UniProt Q9Y376),0.964 ± 0.054,0.976 ± 0.023,,,,,,
PPME1 (UniProt Q9Y570),0.992 ± 0.042,1.03 ± 0.059,0.951 ± 0.039,0.972 ± 0.056,0.956 ± 0.037,0.933 ± 0.085,0.941 ± 0.023,0.953 ± 0.058
TRPV2 (UniProt Q9Y5S1),1.06 ± 0.034,1.01 ± 0.051,1.02 ± 0.076,1.02 ± 0.073,0.999 ± 0.03,0.955 ± 0.0051,0.965 ± 0.048,0.976 ± 0.023
ZHX2 (UniProt Q9Y6X8),0.964 ± 0.045,0.978 ± 0.015,,,,,,
CLIC4 (UniProt Q9Y696),1 ± 0.015,1.02 ± 0.056,,,,,,
NOP58 (UniProt Q9Y2X3),0.992 ± 0.051,0.999 ± 0.055,1.08 ± 0.062,1.1 ± 0.054,1.2 ± 0.054,1.35 ± 0.079,1.51 ± 0.042,1.71 ± 0.13
UniProt Q9Y6X3,0.9612 ± 0.0053,1.07 ± 0.046,0.977 ± 0.053,1.06 ± 0.086,1.15 ± 0.25,1.09 ± 0.26,0.98 ± 0.057,1.11 ± 0.22
UniProt Q9Y6P5-2,1.13 ± 0.16,1.08 ± 0.068,,,,,,
FBXO7 (UniProt Q9Y3I1),0.865 ± 0.042,0.952 ± 0.011,,,,,,
UniProt Q9Y5P4 and related entries,1.01 ± 0.045,1.01 ± 0.057,0.9555 ± 0.0053,0.974 ± 0.025,0.948 ± 0.011,0.949 ± 0.024,0.93 ± 0.011,0.954 ± 0.026
LUC7L2 (UniProt Q9Y383),1.14 ± 0.042,1.75 ± 0.13,1.84 ± 0.14,1.95 ± 0.034,2.05 ± 0.038,2.21 ± 0.066,2.12 ± 0.087,2.11 ± 0.095
ZNF330 (UniProt Q9Y3S2),1.04 ± 0.073,1.03 ± 0.037,,,,,,
UniProt Q9Y3I0,1.02 ± 0.061,1.03 ± 0.068,0.997 ± 0.038,0.974 ± 0.025,0.979 ± 0.043,1.04 ± 0.04,1.02 ± 0.048,1.02 ± 0.048
PPIL1 (UniProt Q9Y3C6),0.943 ± 0.045,0.919 ± 0.089,0.919 ± 0.019,0.9512 ± 0.0074,0.913 ± 0.034,0.963 ± 0.031,0.964 ± 0.016,0.902 ± 0.065
FHOD1 (UniProt Q9Y613),1.01 ± 0.062,1.01 ± 0.092,0.963 ± 0.062,1.01 ± 0.085,1.02 ± 0.058,1.01 ± 0.078,0.952 ± 0.068,0.96 ± 0.055
AFG3L2 (UniProt Q9Y4W6),1.04 ± 0.064,1.04 ± 0.048,,,,,,
UniProt Q9Y6M7-13|Q9Y6M7-6|Q9Y6M7-9|Q9Y6M7-5|A0A0A0MST8,1 ± 0.011,1.03 ± 0.026,1.05 ± 0.022,1.03 ± 0.026,1.05 ± 0.036,1.04 ± 0.032,1.06 ± 0.024,1.02 ± 0.034

# Reference: the supplement of paper PMC6411743
